According to patent US10308607B2, “Fucosidase inhibitors” (HORIZON ORPHAN LLC, priority 2015, dated 2019):
At least one structure is not confirmed: it was looked up by name or label, or the drawing left a doubt. Some entries repeat one wording, which the source may state once for all of them.

Sequences of proteins named here, by UniProt entry; tags and fusion partners are left off. Residues count along the entry.
UniProt P04066, 32-466: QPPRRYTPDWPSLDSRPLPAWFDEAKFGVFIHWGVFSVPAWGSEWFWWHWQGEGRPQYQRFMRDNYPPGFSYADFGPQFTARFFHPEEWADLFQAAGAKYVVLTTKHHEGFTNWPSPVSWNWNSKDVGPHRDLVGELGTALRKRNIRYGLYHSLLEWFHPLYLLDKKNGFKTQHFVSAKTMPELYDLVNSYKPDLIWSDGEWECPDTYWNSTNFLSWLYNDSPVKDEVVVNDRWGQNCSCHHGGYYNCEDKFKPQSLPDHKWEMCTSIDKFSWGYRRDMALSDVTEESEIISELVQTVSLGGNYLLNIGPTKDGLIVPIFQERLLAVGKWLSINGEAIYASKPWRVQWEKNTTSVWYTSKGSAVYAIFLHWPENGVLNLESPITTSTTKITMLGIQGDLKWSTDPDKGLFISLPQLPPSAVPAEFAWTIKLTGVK

Key:
[1] = test system: human hepatocarcinoma cell line HepG2; assay: Orthotopic model of human hepatocellular carcinoma; type: in vivo, nude mice; conditions: both dosing regimens; greater reduction for the 87.5 mg/kg twice-daily dose
Method: To assess the compounds in vivo, an orthotopic model of human hepatocellular carcinoma was used. The orthotopic tumor model was generated by implanting human hepatocarcinoma cell line HepG2 into nude mice and allowing the tumor cells to grow in vivo.
The efficacy study was carried out using 10 mice per group and two dosage regimens. Compound II (see Example 2) was administered by oral gavage (po) at a dosage of 175 mg/kg once daily for 3 weeks (QDx21) or at a dosage of 87.5 mg/kg twice daily for 3 weeks (BIDx21). Vehicle (100 μL) was administered to control animals.

rhFUCA1 = rhFUCA1 (Homo sapiens (Human), UniProt P04066); assay: In vitro fucosidase inhibition (4MU-FUC fluorescence); type: biochemical; conditions: statement in words
Method: Fucosidase inhibition was assessed by preparing a reaction mixture of 50 mM phosphate-citrate pH 4.5, 5 mM MgCl2, 640 nM 4-methylumbelliferyl-alpha-L-fucopyranoside (4MU-FUC), 1 ng/mL rhFUCA1 (R&D Systems), and compound II, III, or IV:
Reactions (100 μL) were incubated at 37° C. for 30 minutes and then quenched with the same volume of 600 mM citrate-carbonate buffer, pH 9. Fluorescence was measured by excitation at 360 nm and emission at 450 nm.

HepG2 cells = assay: Metabolic labeling with tagged-fucose, flow cytometry; type: cell-based, human; conditions: HepG2, statement in words
Method: Perturbations in glycoprotein metabolism were assayed by growing HepG2 cells without fucosidase inhibitors, or with compound II, III, or IV (see Example 2) for 24 hours, and then adding (3S,4R,5R,6S)-6-ethynyltetrahydro-2H-pyran-2,3,4,5-tetrayl tetra acetate, a per-acetylated analog of fucose containing an alkyne moiety in place of the 5′-methyl group (Click-iT™ Fucose Alkyne, Molecular Probes, Eugene, Oreg.) for an additional 48 hours. Cells were fixed, permeabilized, washed, and stained with Alexa Fluor 488 Azide to orthogonally label glycoproteins incorporating the fucose analog. Cells were then analyzed for fluorescence using a Guava 6HT-2L flow cytometer (ThermoFisher).

HepG2 = assay: Multiplexed cytotoxicity assay; type: cell-based, human; conditions: HepG2, liver carcinoma, 72 hour
Method: (§1) To assess the cytotoxicity of compound II (see Example 2) in cancer and normal cells, the cells were grown in RPMI1640, 10% FBS, 2 mM L-alanyl-L-Glutamine, 1 mM Na Pyruvate or a special medium in a humidified atmosphere of 5% CO2 at 37° C. Cells were seeded into 384-well plates and incubated in a humidified atmosphere of 5% CO2 at 37° C. Compound II was added 24 hours post cell seeding. At the same time, a time zero untreated cell plate was generated.
(§2) After a 72 hour incubation period, cells were fixed and stained with fluorescently labeled antibodies and nuclear dye to allow visualization of nuclei, apoptotic cells and mitotic cells. Apoptotic cells were detected using an anti-active caspase-3 antibody. Mitotic cells were detected using an anti phospho-histone-3 antibody.
(§3) Compound II was serially diluted 3.16-fold and assayed over 9 concentrations. Automated fluorescence microscopy was carried out using a GE Healthcare IN Cell Analyzer 1000, and images were collected with a 4× objective.
Twelve bit tiff images were acquired using the InCell Analyzer 1000 3.2 and analyzed with Developer Toolbox 1.6 software. EC50 and IC50 values were calculated using nonlinear regression to fit data to a sigmoidal 4 point, 4 parameter One-Site dose response model, where: y (fit)=A+[(B−A)/(1+((C/x)^D))]. […]

healthy fibroblast cells = assay: Metabolic labeling with tagged-fucose, similar assay in fibroblasts; type: cell-based; conditions: healthy fibroblast cells in place of HepG2
HT-29 = assay: Multiplexed cytotoxicity assay; type: cell-based; conditions: HT-29, colon carcinoma, 72 hour
Method: as §1, §2, §3
(§4) Twelve bit tiff images were acquired using the InCell Analyzer 1000 3.2 and analyzed with Developer Toolbox 1.6 software. EC50 and IC50 values were calculated using nonlinear regression to fit data to a sigmoidal 4 point, 4 parameter One-Site dose response model, where: y (fit)=A+[(B−A)/(1+((C/x)^D))]. Curve-fitting, EC50/IC50 calculations and report generation are performed using a custom data reduction engine MathIQ based software (AIM).
(§5) The multiplexed cytotoxicity assay uses a cell image based analysis technique where cells are fixed and stained with fluorescently labeled antibodies and nuclear dye to visualize nuclei, and apoptotic and mitotic cells. Apoptotic cells are detected using an anti-active caspase-3 antibody. Mitotic cells are detected using an anti phospho-histone-3 antibody. Cell proliferation is measured by the signal intensity of the incorporated nuclear dye. The cell proliferation assay output is referred to as the relative cell count. To determine the cell proliferation end point, the cell proliferation data output is transformed to percent of control (POC) using the following formula: POC=relative cell count(compound wells)/relative cell count(vehicle wells)×100.
(§6) Relative cell count IC50 is the test compound concentration at 50% of maximal possible response. A relative cell count EC50 is the test compound concentration at the curve inflection point or half the effective response (parameter C of the fitted curve solution). GI50 is the concentration needed to reduce the observed growth by half. This is the concentration that inhibits the growth midway between untreated cells and the number of cells seeded in the well (Time zero value).
(§7) The activated caspase-3 marker labels cells from early to late stage apoptosis. The output is shown as a fold increase of apoptotic cells over vehicle background normalized to the relative cell count in each well. Concentrations of test compound that cause a 5-fold induction in the caspase-3 signal indicates significant apoptosis induction. Wells with concentrations higher than the relative cell count IC95 are eliminated from the caspase3 induction analysis.
(§8) The phospho-histone-3 marker labels mitotic cells. The output is shown as a fold induction of mitotic cells over vehicle background normalized to the relative cell count in each well. When the fold induction of mitotic cell signal over background is ˜1, there is “no effect” on the cell cycle. Two or more fold increase in phospho-histone-3 signal over vehicle background indicates significant test compound induction of mitotic block.
(§9) Two or more fold decrease in the phospho-histone-3 signal may indicate G1/S block only when cytotoxicity levels are below the measured relative cell count IC95. […]

HT-1080 = assay: Multiplexed cytotoxicity assay; type: cell-based; conditions: HT-1080, connective sarcoma, 72 hour
Method: as §1, §2, §3, §4, §5, §6, §7, §8, §9

SNU-423 = assay: Multiplexed cytotoxicity assay; type: cell-based; conditions: SNU-423, liver carcinoma, 72 hour
Method: as §1, §2, §3, §4, §5, §6, §7, §8, §9

A549 = assay: Multiplexed cytotoxicity assay; type: cell-based; conditions: A549, lung carcinoma, 72 hour
Method: as §1, §2, §3, §4, §5, §6, §7, §8, §9

LNCaP = assay: Multiplexed cytotoxicity assay; type: cell-based; conditions: prostate carcinoma, 72 hour
Method: as §1, §2, §3, §4, §5, §6, §7, §8, §9

HUVEC = assay: Multiplexed cytotoxicity assay; type: cell-based; conditions: normal endothelium, 72 hour
Method: as §1, §2, §3, §4, §5, §6, §7, §8, §9

SKOV3 = assay: Multiplexed cytotoxicity assay; type: cell-based; conditions: SKOV3, ovary carcinoma, 72 hour
Method: as §1, §2, §3, §4, §5, §6, §7, §8, §9

MDA-MB-231 = assay: Multiplexed cytotoxicity assay; type: cell-based; conditions: MDA-MB-231, breast carcinoma, 72 hour
Method: as §1, §2, §3, §4, §5, §6, §7, §8, §9

HRPTEpiC = assay: Multiplexed cytotoxicity assay; type: cell-based; conditions: normal renal, 72 hour
Method: as §1, §2, §3, §4, §5, §6, §7, §8, §9

BxPC-3 = assay: Multiplexed cytotoxicity assay; type: cell-based; conditions: BxPC-3, pancreas carcinoma, 72 hour
Method: as §1, §2, §3, §4, §5, §6, §7, §8, §9

K562 = assay: Multiplexed cytotoxicity assay; type: cell-based; conditions: K562, blood leukemia, 72 hour
Method: as §1, §2, §3, §4, §5, §6, §7, §8, §9

U-87 MG = assay: Multiplexed cytotoxicity assay; type: cell-based; conditions: brain blastoma, 72 hour
Method: as §1, §2, §3, §4, §5, §6, §7, §8, §9

NHDF = assay: Multiplexed cytotoxicity assay; type: cell-based; conditions: normal skin, 72 hour
Method: as §1, §2, §3, §4, §5, §6, §7, §8, §9

HUMSC = assay: Multiplexed cytotoxicity assay; type: cell-based; conditions: normal mesenchymal stem, 72 hour
Method: as §1, §2, §3, §4, §5, §6, §7, §8, §9

For C[C@@H]1N[C@H](CNC(=O)c2cccc3c2C(=O)c2ccccc2-3)[C@@H](O)[C@H](O)[C@@H]1O [Compound II], the “reduction in tumor volume” value [1] was “efficient reduction in tumor volume”, the “inhibition of fucosidase activity” value (rhFUCA1) was “effective inhibition of fucosidase activity” and the “levels of fucosylated material in cells” value (HepG2 cells) was “increased levels of fucosylated material”. The Primary effect (HepG2) was “apoptosis”, the “levels of fucosylated material” value (healthy fibroblast cells) was “minimal effect” and the G1/S arrest (HT-29) was “none”. For the same molecule, the Primary effect (HT-29) was “apoptosis”, the Primary effect (HT-1080) was “apoptosis” and the G1/S arrest (SNU-423) was “none”. The Primary effect (SNU-423) was “growth arrest”, the Primary effect (A549) was “apoptosis” and the G1/S arrest (LNCaP) was “none”. The Primary effect (LNCaP) was “apoptosis”, the Primary effect (HUVEC) was “growth arrest” and the Primary effect (SKOV3) was “growth arrest”. For the same molecule, the G1/S arrest (MDA-MB-231) was “none”, the Primary effect (HRPTEpiC) was “growth arrest” and the Primary effect (BxPC-3) was “growth arrest”. For the same molecule, the Primary effect (K562) was “growth arrest”, the Primary effect (U-87 MG) was “growth arrest” and the Primary effect (NHDF) was “growth arrest”. For the same molecule, the Primary effect (HUMSC) was “growth arrest”.
For O=C(NC[C@@H]1N[C@@H](CF)[C@@H](O)[C@@H](O)[C@@H]1O)c1cccc2c1C(=O)c1ccccc1-2 [Compound III], the “inhibition of fucosidase activity” value (rhFUCA1) was “effective inhibition of fucosidase activity” and the “levels of fucosylated material in cells” value (HepG2 cells) was “decreased levels of fucosylated material”.
For C[C@@H]1N/C(=C\C(=O)Nc2cccc3c2C(=O)c2ccccc2-3)[C@@H](O)[C@H](O)[C@@H]1O [Compound IV], the “inhibition of fucosidase activity” value (rhFUCA1) was “effective inhibition of fucosidase activity” and the “levels of fucosylated material in cells” value (HepG2 cells) was “increased levels of fucosylated material”.
